Source: article PMC3524764
Results are given in words; binding and its absence hold for the method and conditions named. Binding seen in cells or lysates may run through a third protein. Some results given as binding are weak or reduced against the parent protein; the word gives no strength. Each block holds one binder with its values, some of them ahead of it.

By UniProt entry, the sequences of proteins in these tests, tags left out.
UniProt O88704: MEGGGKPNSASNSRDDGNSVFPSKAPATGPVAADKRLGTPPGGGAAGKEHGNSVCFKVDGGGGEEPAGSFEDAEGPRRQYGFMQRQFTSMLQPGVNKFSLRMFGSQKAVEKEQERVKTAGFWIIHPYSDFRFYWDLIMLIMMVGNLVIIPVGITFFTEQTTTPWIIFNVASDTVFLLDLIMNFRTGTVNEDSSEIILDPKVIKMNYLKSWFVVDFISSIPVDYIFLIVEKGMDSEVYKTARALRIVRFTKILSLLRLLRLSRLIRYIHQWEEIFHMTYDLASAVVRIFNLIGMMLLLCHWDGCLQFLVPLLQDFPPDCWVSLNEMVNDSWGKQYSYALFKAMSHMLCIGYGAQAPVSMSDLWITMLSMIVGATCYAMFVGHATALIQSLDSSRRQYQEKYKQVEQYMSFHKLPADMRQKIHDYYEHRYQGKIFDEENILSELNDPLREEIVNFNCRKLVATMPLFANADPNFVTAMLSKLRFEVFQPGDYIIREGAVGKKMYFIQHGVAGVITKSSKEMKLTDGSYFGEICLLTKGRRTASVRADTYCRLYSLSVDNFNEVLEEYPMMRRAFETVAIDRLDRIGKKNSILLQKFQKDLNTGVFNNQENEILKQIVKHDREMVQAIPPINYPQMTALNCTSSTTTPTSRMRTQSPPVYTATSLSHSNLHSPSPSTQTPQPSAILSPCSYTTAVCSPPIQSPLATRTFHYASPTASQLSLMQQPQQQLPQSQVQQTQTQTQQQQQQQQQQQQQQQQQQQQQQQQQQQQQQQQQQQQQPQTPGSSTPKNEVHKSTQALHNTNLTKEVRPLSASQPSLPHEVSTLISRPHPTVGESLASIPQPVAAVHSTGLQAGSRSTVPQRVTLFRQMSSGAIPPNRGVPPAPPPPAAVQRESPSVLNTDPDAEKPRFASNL

What was measured:
[1] = target: HCN1 (hyperpolarization-activated cyclic nucleotide gated channel 1), endogenous in mouse brain (mouse (endogenous in mouse brain)) (UniProt O88704); assay: co-IP; lysate of the cortex of wild type mice (13 weeks old in Figure 3I-K) in HBS-T lysis buffer (10 mM HEPES pH 7.6, 150 mM NaCl, 5 mM EDTA, 0.5% Triton X-100); precipitated with anti-HCN1, anti-X11 or anti-X11L/Mint2 antibody, 4°C 2 h, Dynabeads Protein G; immunoblot; HCN1-/-, X11-/- or X11L-/- mice as controls
[2] = target: HCN1 (hyperpolarization-activated cyclic nucleotide gated channel 1), endogenous in mouse brain (mouse (endogenous in mouse brain)) (UniProt O88704); assay: co-IP; lysate of the EC-rich cortex region (from five mice) of HCN1+/+ and HCN1-/- mice in HBS-T lysis buffer; precipitated with anti-HCN1 antibody, 4°C 2 h, Dynabeads Protein G; immunoblot

binding [1]: binds
binding [2]: binds
B1: X11-like protein (X11L/X11β/Mint2), endogenous in mouse brain (protein, UniProt P98084 1-750)
chain: MAHRKRQSTASSMLDHRARPGPIPHDQEPESEDTELPLESYVPTGLELGTLRPESPTPEEQECHNHSPDGDSSSDYVNNTSEEEDYDEGLPEEEEGVTYYIRYCPEDDSYLEGMDCNGEEYIAHGAHPVDTDECQEAVEDWTDSVGPHTHSHGAENSQEYPDGHLPIPEDDPTVLEVHDQEEDGHYCSSKESYQDYYPPETNGNTGGASPYRMRRGDGDLEEQEEDIDQIVAEIKMSLSMTSITSASEASPEHMPELDPGDSTEACPPSDTGHGPGRQEARPKSLNLPPEVKHPGDLQRGLKTKTRTPEERPKWPQEQVCNGLEQPRKQQRSDLNGPTDNNNIPETKKVASFPSFVAVPGPCEAEDLIDGIIFAANYLGSTQLLSERNPSKNIRMMQAQEAVSRVKRMQKAAKIKKKANSEGDAQTLTEVDLFISTQRIKVLNADTQETMMDHALRTISYIADIGNIVVLMARRRMPRSASQDCIETTPGAQEGKKQYKMICHVFESEDAQLIAQSIGQAFSVAYQEFLRANGINPEDLSQKEYSDIINTQEMYNDDLIHFSNSENCKELQLEKHKGEILGVVVVESGWGSILPTVILANMMNGGPAARSGKLSIGDQIMSINGTSLVGLPLATCQGIIKGLKNQTQVKLNIVSCPPVTTVLIKRPDLKYQLGFSVQNGIICSLMRGGIAERGGVRVGHRIIEINGQSVVATAHEKIVQALSNSVGEIHMKTMPAAMFRLLTGQETPLYI

binding [1]: binds
binding [2]: binds
B2: X11 (X11α/Mint1), endogenous in mouse brain (protein, UniProt B2RUJ5 1-842)
chain: MNHLEGSAEVEVADEAPGGEVNESVEADLEHPEVVEGQQPSPSPPPPAGHEPEDHRGHPAPPPPPPPQEEEEEERGECLARSASTESGFHNHTDTAEGDVLAAARDGYEAERAQDADDESAYAVQYRPEAEEYTEQAEAEHVEAAQRRALPNHLHFHSLEHEEAMNAAYSGYVYTHRLFHRAEDEPYAEPYADYGGLQEHVYEEIGDAPELEARDGLRLYERERDEAAAYRQEALGARLHHYDERSDGESDSPEKEAEFAPYPRMDSYEQEEDIDQIVAEVKQSMSSQSLDKAAEDMPEAEQDLERAPTPGGGHPDSPGLPAPAGQQQRVVGTPGGSEVGQRYSKEKRDAISLAIKDIKEAIEEVKTRTIRSPYTPDEPKEPIWVMRQDISPTRDCDDQRPVDGDSPSPGSSSPLGAESSSIPLHPGDPTEASTNKESRKSLASFPTYVEVPGPCDPEDLIDGIIFAANYLGSTQLLSDKTPSKNVRMMQAQEAVSRIKTAQKLAKSRKKAPEGESQPMTEVDLFISTQRIKVLNADTQEPMMDHPLRTISYIADIGNIVVLMARRRMPRSNSQENVEASHPSQDGKRQYKMICHVFESEDAQLIAQSIGQAFSVAYQEFLRANGINPEDLSQKEYSDLLNTQDMYNDDLIHFSKSENCKDVFIEKQKGEILGVVIVESGWGSILPTVIIANMMHGGPAEKSGKLNIGDQIMSINGTSLVGLPLSTCQSIIKGLKNQSRVKLNIVRCPPVTTVLIRRPDLRYQLGFSVQNGIICSLMRGGIAERGGVRVGHRIIEINGQSVVATPHEKIVHILSNAVGEIHMKTMPAAMYRLLTAQEQPVYI
